According to paper PMC12827083:
No constants are given. Whether binding was seen depends on the method and setting. In cells and extracts the contact can be indirect. Some binding calls cover weakened binding; strength is not graded here. For some assays here: Sequences can lack the tags named with a protein.

How the values were obtained:
[1] = molecular target: T1, Flag-TRADD (tumor necrosis factor receptor 1-associated death domain protein) (human) (UniProt Q15628); assay: co-IP; HEK293T cells transfected with Myc-PELI3 or Flag-TRADD plasmids for 48 hours; lysed in IP Lysis buffer; precipitated with anti-Myc or anti-Flag antibody (2 ug, overnight, 4 °C) and Protein A/G Plus Agarose; immunoblot
T1 sequence: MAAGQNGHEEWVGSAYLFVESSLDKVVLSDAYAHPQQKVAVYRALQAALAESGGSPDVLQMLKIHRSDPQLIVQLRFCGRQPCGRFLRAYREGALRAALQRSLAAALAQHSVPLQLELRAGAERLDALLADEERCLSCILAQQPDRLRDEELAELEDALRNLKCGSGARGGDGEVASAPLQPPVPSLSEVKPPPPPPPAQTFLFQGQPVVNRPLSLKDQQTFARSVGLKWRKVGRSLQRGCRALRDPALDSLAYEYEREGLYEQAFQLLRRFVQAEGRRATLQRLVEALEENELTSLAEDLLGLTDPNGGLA

[2] = molecular target: T2, TRADD, endogenous in A549 cells (human (endogenous in A549)) (UniProt Q15628); assay: co-IP; A549 cells lysed; endogenous proteins precipitated with an anti-TRADD or anti-PELI3 antibody; immunoblot
T2 sequence: T1 sequence

B1: Myc-PELI3 (Pellino E3 ubiquitin protein ligase family member 3) (enzyme, UniProt Q8N2H9 1-469)
chain: MVLEGNPEVGSPRTSDLQHRGNKGSCVLSSPGEDAQPGEEPIKYGELIVLGCCEEGGEETEAQRGEVTGPRAHSCYNGCLASGDKGRRRSRLALSRRSHANGVKPDVMHHISTPLVSKALSNRGQHSISYTLSRSHSVIVEYTHDSDTDMFQIGRSTENMIDFVVTDTSPGGGAAEGPSAQSTISRYACRILCDRRPPYTARIYAAGFDASSNIFLGERAAKWRTPDGLMDGLTTNGVLVMHPAGGFSEDSAPGVWREISVCGNVYTLRDSRSAQQRGKLVENESNVLQDGSLIDLCGATLLWRTPAGLLRAPTLKQLEAQRQEANAARPQCPVGLSTLAFPSPARGRTAPDKQQPWVYVRCGHVHGYHGWGCRRERGPQERECPLCRLVGPYVPLWLGQEAGLCLDPGPPSHAFAPCGHVCSEKTARYWAQTPLPHGTHAFHAACPFCGAWLTGEHGCVRLIFQGPLD
With B1 the binding [1] was “binds”.

B2: PELI3, endogenous in A549 cells (enzyme, UniProt Q8N2H9 1-469)
chain: B1 chain
B2 was tested, and the binding [2] was “binds”.
